Out of some 330,000 compounds screened, about 7,700 (2.3%) were called active. The shares of active, inactive and inconclusive entries below differ from those in the screen. Calls come from the whole dose curve; as a rule, active = well fitted inhibition curve with a large enough effect; inconclusive = small, poorly fitted or top-dose-only effect, or effect the other way; inactive = flat fitted curve, though single readings scatter. Potencies beside an inconclusive call are fits to weak or partial responses and may not hold up.
experiment: qHTS screen for small molecules that inhibit ELG1-dependent DNA repair in human embryonic kidney (HEK293T) cells expressing luciferase-tagged ELG1; conditions: HEK293T ELG1-luciferase reporter, luminescence, 16 h, DNA damage induced by 5-fluorouridine; activity change, negative = inhibition: at 46.1 µM (top of the series); note: nearly all actives have a fitted effect of over 55% in size
Procedure, shortened: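 In this reporter screen, reduction of luminescence relative to DMSO vehicle indicated activity. Compounds and 5-fluorouridine were added together to 2,000 cells per well, incubated for 16 hr at 37 °C, then developed with ONE-Glo.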
% is set by controls: 0 for no effect and ±100 for the full control effect; potency is the fitted concentration of half-maximal effect.

| Compound | activity change, negative = inhibition | Potency |
| --- | --- | --- |
| O=C1CCCN1C(=O)CSc1nnnn1-c1ccccc1 | inactive: 6.94% |  |
| CCc1ccc(OCC(=O)Nc2cccc3c2CCCC3)cc1 | inactive: 6.73% |  |
| CCN(CC)S(=O)(=O)c1ccc(/C=C/C(=O)Nc2ccc(Br)cc2F)cc1 |  | inconclusive: 2.31 µM [inhibitor, full curve] |
| Cc1cccc(NC(=S)N(C)C)c1C | inactive: 1.62% |  |
| CCC(=O)c1ccc(OCc2ccc(C(=O)OC)cc2)c(OC)c1 |  | inconclusive: 12.6 µM [activator, single point] |
| CNC(=O)c1ccc(Nc2nnc(-c3ccc(O)cc3)c3ccccc23)cc1 |  | inconclusive: 11.6 µM [inhibitor, partial curve] |
| CC(C(=O)NC(C)(C)C)N(Cc1cccs1)C(=O)CCN1CCc2ccccc21 (stereo not drawn) |  | inconclusive: 13 µM [inhibitor, partial curve, poor fit] |
| Cc1ccc(NCN2C(=O)C3CC=CCC3C2=O)cc1 (stereo not drawn) | inactive: 11.5% |  |
| Cc1ccc(-c2nc3cc(NC(=O)C(C)C)ccc3o2)cc1C |  | inconclusive: 0.651 µM [activator, partial curve, poor fit] |
| COc1cc(Cl)ccc1OCc1cc(C(=O)N2CCCCCCC2)no1 |  | inconclusive: 20.6 µM [activator, single point] |
| CC(=O)c1cc2c(cc1NC(=O)Cc1c(C)noc1C)OCO2 |  | inconclusive: 13 µM [activator, partial curve, poor fit] |
| Cc1ccc(S(=O)(=O)N/N=C\c2ccc([N+](=O)[O-])o2)cc1 | inactive: 15.9% |  |
| CC(COc1ccc(C(C)C)cc1)NC(=O)c1ccc(Br)o1 (stereo not drawn) | inactive: -3.27% |  |
| CC(C)(C)CN1CCNC(=O)C1CC(=O)N1CCN(c2ccccc2)CC1 (stereo not drawn) | inactive: -5.49% |  |
| CN1C(=O)/C(=C/c2ccc(C(F)(F)F)cc2)Sc2ccc(C(=O)N3CCN(c4ccccn4)CC3)cc21 |  | inconclusive: 20.6 µM [inhibitor, partial curve, poor fit] |
| COc1cc(C(=O)N/N=C/c2cn(Cc3cccc(F)c3)c3ccccc23)ccc1O | inactive: -17.3% |  |
| c1ccc(SCCOCCN2CCOCC2)cc1 |  | inconclusive: 29.1 µM [activator, single point] |
| O=C(c1ccc(F)cc1)C1CCN(C(=O)c2ccccc2)CC1 | inactive: 0.864% |  |
| O=S(=O)(Cc1cc(Cl)nc(-c2ccncc2)n1)c1ccccc1 | inactive: -4.87% |  |
| CCSc1ncc(/C=N/Nc2ccccc2)n1C |  | inconclusive: 23.1 µM [activator, partial curve] |
| CS(=O)(=O)c1ccc(C(=O)Nc2ccc(N3CCCCC3)cc2)c(Cl)c1 |  | inconclusive: 20.6 µM [activator, single point] |
| COc1ccc2c(CC(=O)Nc3ccc(OC)c(S(=O)(=O)N4CCOCC4)c3)coc2c1 | inactive: -10.5% |  |
| CC1CCC/C(=N\Nc2ccc(Cl)c(C(=O)O)c2)C1 (stereo not drawn) |  | inconclusive: 13 µM [activator, partial curve] |
| Cc1ccc2nc(Cn3cc(C(F)(F)F)ccc3=O)cc(=O)n2c1 | inactive: 14% |  |

| Compound | activity change, negative = inhibition | Potency |
| --- | --- | --- |
| Cc1cc(C)n(-c2ccc(NC(=O)C3CCN(Cc4cc(C)c(C)o4)CC3)cc2)n1 | inactive: -5.31% |  |
| CCCn1c(SCc2nc(N)nc(N3CCCCC3)n2)nc2c1c(=O)n(C)c(=O)n2C |  | inconclusive: 18.3 µM [inhibitor, partial curve] |
| C/C(=N\NC(=O)c1ccc2c(c1)OCO2)c1ccc(C(=O)O)s1 |  | inconclusive: 14.6 µM [activator, partial curve, poor fit] |
| Cc1noc(C)c1COc1ccccc1C(=O)NNC(=O)C(C)Oc1ccccc1F (stereo not drawn) | inactive: 0.272% |  |
| Cc1cccc(NS(=O)(=O)c2ccc(C(=O)N3CCC3)cc2)c1C | inactive: 4.66% |  |
| N#Cc1c(NC(=S)NC(=O)c2ccccc2)sc2c1CCC2 |  | inconclusive: 14.6 µM [activator, partial curve] |
| COc1cccc(NC(=O)NCc2ccccn2)c1 |  | inconclusive: 29.1 µM [activator, single point] |
| O=C(Nc1ccccc1C(F)(F)F)c1cc(-c2ccccc2O)on1 |  | inconclusive: 4.11 µM [activator, full curve] |
| CCn1nc(C)c(CNC(=O)c2cc(COc3ccccc3SC)on2)c1C | inactive: 3.42% |  |
| COc1ccc(CCNC(=O)c2cc(S(=O)(=O)N3CCC4(CC3)OCCO4)ccc2F)cc1OC |  | active: 9.2 µM |
| Cn1c2ccc(F)cc2c2nc3ccccc3nc21 | inactive: 8.58% |  |
| NNC(=O)c1cc(-c2ccc(N)cc2)nc2ccc(Br)cc12 |  | inconclusive: 20.6 µM [inhibitor, partial curve] |
| C[C@]12c3[nH]c4ccccc4c3CCN1C(=O)C(CC(=O)NCc1cccc(C(F)(F)F)c1)C[C@@H]2C(=O)N1CCCCC1 (stereo partly drawn) |  | inconclusive: 29.1 µM [inhibitor, single point] |
| O=C(CSc1nc2ncccc2[nH]1)c1ccc2c(c1)OCO2 |  | inconclusive: 13 µM [activator, single point] |
| CCC(C)NC(=O)c1ccc(C2SCC(=O)N2Cc2ccccc2)cc1 (stereo not drawn) | inactive: -5.85% |  |
| COc1ccc(C2CC(C(F)(F)F)n3nc(C(=O)NCc4c(C)nn(C)c4C)c(Cl)c3N2)cc1 (stereo not drawn) |  | inconclusive: 10.3 µM [inhibitor, partial curve] |
| O=C(COC(=O)c1ccc(N2CCOCC2)c([N+](=O)[O-])c1)Nc1ccc2c(c1)OCO2 | inactive: 12% |  |
| COc1ccc(/C=C2/C(=O)ON=C2C)cc1Cl | inactive: 12.4% |  |
| COc1ccc(/C(C)=N/OCC(=O)N=Nc2c(O)[nH]c3ccc(Br)cc23)cc1 |  | inconclusive: 29.1 µM [inhibitor, single point] |
| Cn1c(=O)c2ccccc2n(CC(=O)N2CCCc3ccccc32)c1=O |  | inconclusive: 20.6 µM [inhibitor, single point] |
| COc1ccccc1NC(=O)CCc1nc2sc3c(c2c(=O)[nH]1)CCCC3 |  | inconclusive: 8.2 µM [inhibitor, partial curve, poor fit] |
| Cc1nc(C(=O)N2CCc3c([nH]c4ccccc34)C2c2cc(F)ccc2F)cs1 (stereo not drawn) | inactive: -0.0238% |  |
| O=C(/C=C/c1ccc[nH]1)c1ccc(F)cc1 |  | inconclusive: 23.1 µM [activator, single point] |
| O=C(Cn1cnc2ccccc21)Nc1ccc(F)c(F)c1 |  | inconclusive: 20.6 µM [inhibitor, partial curve] |

Quoted from the listing.
Value for CCn1nc(C)c(CNC(=O)c2cc(COc3ccccc3SC)on2)c1C under activity change, negative = inhibition: inactive: 3.42%
Value for Cc1noc(C)c1COc1ccccc1C(=O)NNC(=O)C(C)Oc1ccccc1F (stereo not drawn) under activity change, negative = inhibition: inactive: 0.272%
